These results are taken from paper PMC3521869 (Journal of medicinal chemistry, 2012).

Sequences of proteins named here, by UniProt entry; tags and fusion partners are left off.
UniProt P61073, whole entry: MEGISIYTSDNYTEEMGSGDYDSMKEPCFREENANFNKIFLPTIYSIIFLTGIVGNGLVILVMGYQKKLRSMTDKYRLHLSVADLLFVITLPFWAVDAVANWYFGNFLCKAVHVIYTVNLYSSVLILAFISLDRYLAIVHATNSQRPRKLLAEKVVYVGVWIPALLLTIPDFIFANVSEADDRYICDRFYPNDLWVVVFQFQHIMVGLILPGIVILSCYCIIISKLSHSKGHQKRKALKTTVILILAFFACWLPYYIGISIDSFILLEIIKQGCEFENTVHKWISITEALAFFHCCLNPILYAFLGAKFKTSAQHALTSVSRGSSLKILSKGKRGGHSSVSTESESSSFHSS

A word on the EC50: it is the concentration that produces a half-maximal response. A higher EC50 goes with lower potency in that assay.

For this assay, the target named is CXCR4 (Homo sapiens, UniProt P61073). The format is cell-based.

Compound `CC[C@H](C)[C@@H]1NC(=O)[C@@H]2CSSC[C@@H]3NC(=O)[C@H](C(C)C)NC(=O)[C@H](CCCCN)NC(=O)[C@H](CCCNC(N)=O)NC(=O)[C@H](Cc4ccc(O)cc4)NC(=O)[C@@H]4CSSC[C@H](NC(=O)[C@H](CCCNC(N)=O)NC(=O)[C@H](CCCNC(=N)N)NC(=O)[C@H](Cc5ccc(O)cc5)NC(=O)[C@H](CO)NC(=O)CNC(=O)[C@@H]5CSSC[C@H](NC(=O)[C@H](CC(=O)O)NC(=O)[C@H](CO)NC(=O)[C@H](CC(=O)O)NC(=O)[C@H](CCCNC(=N)N)NC(=O)[C@H](CCCNC(=N)N)NC(=O)[C@H](CSSC[C@H](NC1=O)C(=O)N[C@@H](CCCNC(=N)N)C(=O)NCC(=O)N[C@@H](CC(N)=O)C(=O)NCC(=O)N[C@@H](Cc1ccc(O)cc1)C(=O)N5)NC(=O)[C@H](CCCNC(=N)N)NC(=O)[C@H](CCC(N)=O)NC(=O)[C@H](CC(C)C)NC(=O)[C@H]([C@@H](C)CC)NC(=O)[C@H](CCCCN)NC(=O)[C@@H]1CCCN1C3=O)C(=O)N1CCC[C@H]1C(=O)NCC(=O)N[C@@H](C)C(=O)N2)C(=O)N[C@@H](CCCNC(=N)N)C(=O)NCC(=O)N1CCC[C@@H]1C(=O)N[C@@H](CCCNC(=N)N)C(=O)N[C@@H](CCCNC(=N)N)C(=O)N[C@@H](Cc1ccc2ccccc2c1)C(=O)N4` [MCo-CVX-5c] yielded an EC50 of 19 ± 3 nM.
